Data as given in PubChem BioAssay AID1259296 (Sanger Institute, 2017).
Here is one part, drawn at random, of 160 reagents. 45 of all reagents (28%) count as active. 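Calls are per single siRNA duplex in CAR1 cells only; how the synergy score is calculated is not stated.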 The numbers tell different reagents against one gene apart. Viability is capped at 1. Further read-outs or replicates are left out here. Not given: the amount of reagent, the time to read-out.

- Purpose: 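Kinase knock-downs that boost killing by anchor drugs in colorectal cancer cells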 (follow-up of hits)
- System: CAR1 human colorectal cancer cells
- Reagent: single siRNA against human genes
- Challenge: anchor drugs BYL719 at 1 µM, cetuximab at 5 µg/ml or trametinib at 10 nM, or DMSO vehicle, added a day after transfection
- Measured: 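Viability as a fraction of control pool 2 (non-targeting), replicate mean; for every anchor drug, a synergy score comparing combined effect with drug and siRNA individually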
- Direction: synergy with BYL719 and synergy with cetuximab and synergy with trametinib: higher = stronger synergy between knock-down and drug; viability, siRNA plus trametinib: higher = more viable cells
- Call rule: 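Active when synergy exceeds 0.10 with BYL719, cetuximab or trametinib, any one sufficing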

The opening 2 entries, to show the layout:
| Target gene | siRNA no. | synergy with BYL719 | synergy with cetuximab | synergy with trametinib | viability, siRNA plus trametinib (fraction of control) | Outcome |
| --- | --- | --- | --- | --- | --- | --- |
| IRAK3 | 1 | 0.067 | 0.144 | 0.171 | 0.569 | active |
| IRAK3 | 2 | 0.0151 | -0.111 | -0.125 | 0.978 | inactive |

The list itself, from the start:
| Target gene | siRNA no. | synergy with BYL719 | synergy with cetuximab | synergy with trametinib | viability, siRNA plus trametinib (fraction of control) | Outcome |
| --- | --- | --- | --- | --- | --- | --- |
| IRAK3 | 1 | 0.067 | 0.144 | 0.171 | 0.569 | active |
| IRAK3 | 2 | 0.0151 | -0.111 | -0.125 | 0.978 | inactive |
| IRAK3 | 3 | 0.0859 | -0.0663 | 0.0545 | 0.922 | inactive |
| IRAK3 | 4 | -0.126 | -0.117 | 0.0446 | 0.836 | inactive |
| PAK1 | 1 | 0.0742 | -0.0439 | 0.17 | 0.586 | active |
| PAK1 | 2 | 0.0896 | -0.102 | 0.098 | 0.742 | inactive |
| PAK1 | 3 | 0.0819 | -0.129 | 0.0215 | 0.699 | inactive |
| PAK1 | 4 | -0.0399 | -0.0733 | -0.0106 | 0.836 | inactive |
| ACVR1 | 1 | -0.0787 | 0.0228 | 0.0433 | 0.934 | inactive |
| ACVR1 | 2 | -0.068 | -0.0924 | -0.017 | 0.895 | inactive |
| ACVR1 | 3 | -0.0653 | -0.0439 | 0 | 1 | inactive |
| ACVR1 | 4 | 0.0463 | -0.093 | 0.0974 | 0.768 | inactive |
| HUNK | 1 | 0.0676 | 0.0125 | 0.0179 | 0.805 | inactive |
| HUNK | 2 | 0.114 | 0.144 | 0.139 | 0.617 | active |
| HUNK | 3 | 0.0786 | -0.0917 | 0.0327 | 0.815 | inactive |
| HUNK | 4 | 0.0418 | -0.101 | -0.0565 | 0.971 | inactive |
| MAPKAPK2 | 1 | 0.036 | -0.0791 | -0.0801 | 0.941 | inactive |
| MAPKAPK2 | 2 | -0.122 | -0.0439 | 0.0216 | 0.978 | inactive |
| MAPKAPK2 | 3 | -0.0544 | -0.0144 | -0.0475 | 1 | inactive |
| MAPKAPK2 | 4 | -0.0572 | -0.107 | -0.0837 | 1 | inactive |
| PLK1 | 1 | -0.0238 | -0.159 | 0.0272 | 0.292 | inactive |
| PLK1 | 2 | 0.143 | 0.0267 | 0.0434 | 0.485 | active |
| PLK1 | 3 | 0.117 | 0.0219 | 0.0869 | 0.438 | active |
| PLK1 | 4 | 0.0615 | 0.0343 | 0.0241 | 0.243 | inactive |
| NLK | 1 | 0.145 | 0.155 | -0.00102 | 0.906 | active |
| NLK | 2 | 0.214 | 0.0954 | 0.232 | 0.534 | active |
| NLK | 3 | -0.07 | -0.0521 | -0.00849 | 0.951 | inactive |
| NLK | 4 | -0.118 | -0.0821 | -0.0668 | 1 | inactive |
| MPP3 | 1 | -0.0183 | -0.0288 | 0.112 | 0.804 | active |
| MPP3 | 2 | 0.057 | -0.064 | 0.128 | 0.688 | active |
| MPP3 | 3 | -0.00646 | -0.0604 | 0.116 | 0.651 | active |
| MPP3 | 4 | 0.0275 | 0.0318 | 0.157 | 0.425 | active |
| CDK6 | 1 | 0.201 | -0.0708 | 0.16 | 0.757 | active |
| CDK6 | 2 | 0.11 | -0.00266 | 0.128 | 0.59 | active |
| CDK6 | 3 | -0.0522 | -0.00483 | 0.164 | 0.814 | active |
| CDK6 | 4 | 0.0746 | 0.028 | 0.141 | 0.824 | active |
